# Some of the results follow.
# Protein sequences, listed by entry. Tags and fused reporters are not part of them. Lines headed by an entry give the natural chain unless they say otherwise; changes in a name come on top.
# UniProt Q8WZ82: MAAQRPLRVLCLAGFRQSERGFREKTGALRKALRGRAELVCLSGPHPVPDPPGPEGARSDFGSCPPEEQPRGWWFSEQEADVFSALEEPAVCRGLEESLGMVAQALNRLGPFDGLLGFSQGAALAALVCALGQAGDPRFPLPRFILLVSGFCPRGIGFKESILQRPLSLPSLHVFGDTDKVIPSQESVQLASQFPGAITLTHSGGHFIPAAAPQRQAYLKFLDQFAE
# UniProt Q15102: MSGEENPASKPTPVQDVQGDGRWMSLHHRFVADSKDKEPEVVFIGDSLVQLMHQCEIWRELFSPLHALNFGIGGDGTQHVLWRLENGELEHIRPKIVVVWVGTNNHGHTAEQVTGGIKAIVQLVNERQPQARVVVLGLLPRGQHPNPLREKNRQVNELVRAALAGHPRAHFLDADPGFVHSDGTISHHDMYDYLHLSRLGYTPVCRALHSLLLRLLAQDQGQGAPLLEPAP
# UniProt Q9H813: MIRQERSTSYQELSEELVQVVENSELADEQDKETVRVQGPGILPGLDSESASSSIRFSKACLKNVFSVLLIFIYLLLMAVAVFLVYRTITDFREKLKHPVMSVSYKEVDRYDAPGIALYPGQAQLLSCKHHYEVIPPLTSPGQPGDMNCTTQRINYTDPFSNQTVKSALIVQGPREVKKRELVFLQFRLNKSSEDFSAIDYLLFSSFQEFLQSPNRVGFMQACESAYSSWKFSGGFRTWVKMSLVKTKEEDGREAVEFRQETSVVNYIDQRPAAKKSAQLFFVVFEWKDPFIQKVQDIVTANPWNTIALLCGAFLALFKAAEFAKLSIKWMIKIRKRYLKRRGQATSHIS
# UniProt Q5JRK9: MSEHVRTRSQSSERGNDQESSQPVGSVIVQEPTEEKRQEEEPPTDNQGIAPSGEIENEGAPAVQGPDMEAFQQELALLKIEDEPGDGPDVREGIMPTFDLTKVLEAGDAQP
# UniProt Q9P0S3: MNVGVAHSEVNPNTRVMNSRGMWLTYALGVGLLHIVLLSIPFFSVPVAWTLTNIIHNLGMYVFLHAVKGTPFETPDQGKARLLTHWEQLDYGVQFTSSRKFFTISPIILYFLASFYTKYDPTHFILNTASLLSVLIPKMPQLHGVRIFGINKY
# UniProt Q13438: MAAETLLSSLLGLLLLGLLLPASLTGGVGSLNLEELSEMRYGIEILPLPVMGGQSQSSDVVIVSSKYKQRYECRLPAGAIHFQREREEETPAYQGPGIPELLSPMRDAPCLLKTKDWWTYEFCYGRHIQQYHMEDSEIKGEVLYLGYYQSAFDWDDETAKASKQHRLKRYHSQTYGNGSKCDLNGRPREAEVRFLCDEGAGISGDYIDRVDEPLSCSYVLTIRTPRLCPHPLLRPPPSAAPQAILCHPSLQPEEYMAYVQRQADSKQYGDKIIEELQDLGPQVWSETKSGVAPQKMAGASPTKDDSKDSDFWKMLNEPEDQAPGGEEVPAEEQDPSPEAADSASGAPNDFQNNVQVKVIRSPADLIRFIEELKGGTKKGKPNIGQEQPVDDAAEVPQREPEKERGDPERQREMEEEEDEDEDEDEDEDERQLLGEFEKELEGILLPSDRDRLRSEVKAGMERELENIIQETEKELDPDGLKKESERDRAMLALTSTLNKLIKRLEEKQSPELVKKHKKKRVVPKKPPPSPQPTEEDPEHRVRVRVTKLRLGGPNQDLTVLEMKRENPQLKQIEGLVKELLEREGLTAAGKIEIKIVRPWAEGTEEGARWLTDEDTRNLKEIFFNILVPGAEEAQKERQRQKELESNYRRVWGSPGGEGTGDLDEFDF
# UniProt O75781: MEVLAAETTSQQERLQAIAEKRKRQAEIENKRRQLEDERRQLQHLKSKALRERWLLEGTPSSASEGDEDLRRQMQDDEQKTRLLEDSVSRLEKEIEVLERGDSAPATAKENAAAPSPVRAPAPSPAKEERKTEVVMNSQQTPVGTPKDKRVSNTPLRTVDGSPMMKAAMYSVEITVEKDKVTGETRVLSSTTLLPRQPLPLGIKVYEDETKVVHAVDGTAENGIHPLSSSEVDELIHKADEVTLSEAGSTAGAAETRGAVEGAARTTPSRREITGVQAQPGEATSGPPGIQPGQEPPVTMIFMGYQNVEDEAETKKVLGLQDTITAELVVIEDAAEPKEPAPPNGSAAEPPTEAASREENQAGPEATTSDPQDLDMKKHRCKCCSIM
# UniProt Q9BTK6, whole entry, looked up: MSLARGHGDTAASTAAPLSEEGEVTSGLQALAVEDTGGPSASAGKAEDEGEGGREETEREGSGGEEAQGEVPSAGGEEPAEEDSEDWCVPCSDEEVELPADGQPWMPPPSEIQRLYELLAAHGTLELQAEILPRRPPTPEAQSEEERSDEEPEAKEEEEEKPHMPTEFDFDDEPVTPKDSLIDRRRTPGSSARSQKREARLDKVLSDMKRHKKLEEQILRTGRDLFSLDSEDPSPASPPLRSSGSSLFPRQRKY
# UniProt Q86W56: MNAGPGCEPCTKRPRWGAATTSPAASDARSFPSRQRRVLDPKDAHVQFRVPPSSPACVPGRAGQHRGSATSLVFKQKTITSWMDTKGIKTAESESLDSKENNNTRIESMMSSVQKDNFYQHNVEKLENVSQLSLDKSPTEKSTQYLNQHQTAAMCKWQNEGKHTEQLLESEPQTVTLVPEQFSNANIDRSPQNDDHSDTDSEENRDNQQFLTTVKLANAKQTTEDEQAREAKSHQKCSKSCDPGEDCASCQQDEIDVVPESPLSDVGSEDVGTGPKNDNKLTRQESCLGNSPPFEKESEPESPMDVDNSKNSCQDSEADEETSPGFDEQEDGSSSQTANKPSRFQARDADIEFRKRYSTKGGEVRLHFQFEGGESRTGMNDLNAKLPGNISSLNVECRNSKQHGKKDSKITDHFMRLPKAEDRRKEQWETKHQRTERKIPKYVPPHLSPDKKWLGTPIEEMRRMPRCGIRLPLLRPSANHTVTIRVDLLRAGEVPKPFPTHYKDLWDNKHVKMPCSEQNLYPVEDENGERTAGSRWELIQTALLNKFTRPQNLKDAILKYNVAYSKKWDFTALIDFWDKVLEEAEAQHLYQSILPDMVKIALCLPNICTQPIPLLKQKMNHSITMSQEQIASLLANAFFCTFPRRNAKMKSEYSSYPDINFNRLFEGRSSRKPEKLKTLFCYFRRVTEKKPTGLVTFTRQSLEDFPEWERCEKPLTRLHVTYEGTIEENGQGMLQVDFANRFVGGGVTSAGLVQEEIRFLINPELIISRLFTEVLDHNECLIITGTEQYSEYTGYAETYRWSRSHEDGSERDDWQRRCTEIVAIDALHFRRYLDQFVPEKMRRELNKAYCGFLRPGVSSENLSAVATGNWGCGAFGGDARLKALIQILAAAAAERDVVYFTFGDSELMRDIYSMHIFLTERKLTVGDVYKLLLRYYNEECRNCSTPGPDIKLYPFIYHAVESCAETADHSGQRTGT
# UniProt Q9NRP0: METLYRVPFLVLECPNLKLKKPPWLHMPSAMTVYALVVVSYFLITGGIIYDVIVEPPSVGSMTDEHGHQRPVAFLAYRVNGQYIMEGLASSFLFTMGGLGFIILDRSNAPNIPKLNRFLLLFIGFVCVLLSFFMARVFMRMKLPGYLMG
# UniProt P04181: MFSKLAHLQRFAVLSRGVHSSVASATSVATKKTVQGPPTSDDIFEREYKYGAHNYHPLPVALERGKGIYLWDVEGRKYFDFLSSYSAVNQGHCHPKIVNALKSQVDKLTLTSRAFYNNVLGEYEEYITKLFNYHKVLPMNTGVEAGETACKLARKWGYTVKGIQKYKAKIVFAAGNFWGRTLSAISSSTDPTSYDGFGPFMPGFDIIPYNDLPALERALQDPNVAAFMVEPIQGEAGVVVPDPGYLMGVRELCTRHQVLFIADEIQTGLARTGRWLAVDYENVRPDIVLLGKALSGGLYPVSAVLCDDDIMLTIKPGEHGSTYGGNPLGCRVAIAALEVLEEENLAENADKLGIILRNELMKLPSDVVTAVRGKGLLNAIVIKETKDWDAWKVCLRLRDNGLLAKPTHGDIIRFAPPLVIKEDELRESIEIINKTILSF
# UniProt Q8N543: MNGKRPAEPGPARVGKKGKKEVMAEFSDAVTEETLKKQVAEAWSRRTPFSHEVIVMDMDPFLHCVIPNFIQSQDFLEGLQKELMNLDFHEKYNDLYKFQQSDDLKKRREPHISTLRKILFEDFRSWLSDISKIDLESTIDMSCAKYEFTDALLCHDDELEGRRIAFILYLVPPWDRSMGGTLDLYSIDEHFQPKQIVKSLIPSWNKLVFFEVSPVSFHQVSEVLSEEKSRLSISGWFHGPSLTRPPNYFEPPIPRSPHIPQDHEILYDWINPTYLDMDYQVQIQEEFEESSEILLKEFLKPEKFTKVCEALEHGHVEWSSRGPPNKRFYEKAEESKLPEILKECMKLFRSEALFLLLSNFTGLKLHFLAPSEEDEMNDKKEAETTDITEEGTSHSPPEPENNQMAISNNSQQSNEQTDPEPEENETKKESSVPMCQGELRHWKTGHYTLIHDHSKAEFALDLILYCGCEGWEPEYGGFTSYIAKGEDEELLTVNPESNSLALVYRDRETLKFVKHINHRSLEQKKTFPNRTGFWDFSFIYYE
# UniProt P61970, whole entry, looked up: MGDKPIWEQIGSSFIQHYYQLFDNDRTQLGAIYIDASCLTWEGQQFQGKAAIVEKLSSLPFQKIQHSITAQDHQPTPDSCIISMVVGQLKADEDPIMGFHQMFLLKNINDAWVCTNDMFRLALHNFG
# UniProt O15294: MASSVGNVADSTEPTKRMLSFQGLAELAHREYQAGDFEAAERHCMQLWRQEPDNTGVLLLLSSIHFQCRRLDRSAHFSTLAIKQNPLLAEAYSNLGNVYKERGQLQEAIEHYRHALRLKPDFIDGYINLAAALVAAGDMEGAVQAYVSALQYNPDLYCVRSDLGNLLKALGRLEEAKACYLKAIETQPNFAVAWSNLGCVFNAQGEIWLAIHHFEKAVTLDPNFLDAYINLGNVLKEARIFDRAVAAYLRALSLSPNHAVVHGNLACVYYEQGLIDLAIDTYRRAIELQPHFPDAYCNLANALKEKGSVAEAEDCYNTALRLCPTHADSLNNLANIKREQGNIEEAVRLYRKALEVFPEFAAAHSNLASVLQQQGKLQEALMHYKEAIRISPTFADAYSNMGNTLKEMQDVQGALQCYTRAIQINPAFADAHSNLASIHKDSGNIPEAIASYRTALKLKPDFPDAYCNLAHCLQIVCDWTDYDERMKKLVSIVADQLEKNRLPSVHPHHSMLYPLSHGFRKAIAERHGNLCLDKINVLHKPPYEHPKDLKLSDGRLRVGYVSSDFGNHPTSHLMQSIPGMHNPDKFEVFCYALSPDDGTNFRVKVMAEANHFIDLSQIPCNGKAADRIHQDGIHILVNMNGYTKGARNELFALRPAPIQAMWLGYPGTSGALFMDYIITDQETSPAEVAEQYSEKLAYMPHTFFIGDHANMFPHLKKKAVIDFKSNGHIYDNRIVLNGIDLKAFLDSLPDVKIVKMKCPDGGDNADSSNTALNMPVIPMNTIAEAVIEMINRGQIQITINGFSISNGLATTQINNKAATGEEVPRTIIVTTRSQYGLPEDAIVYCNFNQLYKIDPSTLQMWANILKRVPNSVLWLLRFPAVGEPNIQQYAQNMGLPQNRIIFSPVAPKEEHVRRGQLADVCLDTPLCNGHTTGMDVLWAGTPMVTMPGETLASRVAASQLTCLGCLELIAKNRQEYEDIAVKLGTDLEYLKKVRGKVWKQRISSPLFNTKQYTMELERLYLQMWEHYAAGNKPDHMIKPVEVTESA
# UniProt Q96RD7, whole entry, looked up: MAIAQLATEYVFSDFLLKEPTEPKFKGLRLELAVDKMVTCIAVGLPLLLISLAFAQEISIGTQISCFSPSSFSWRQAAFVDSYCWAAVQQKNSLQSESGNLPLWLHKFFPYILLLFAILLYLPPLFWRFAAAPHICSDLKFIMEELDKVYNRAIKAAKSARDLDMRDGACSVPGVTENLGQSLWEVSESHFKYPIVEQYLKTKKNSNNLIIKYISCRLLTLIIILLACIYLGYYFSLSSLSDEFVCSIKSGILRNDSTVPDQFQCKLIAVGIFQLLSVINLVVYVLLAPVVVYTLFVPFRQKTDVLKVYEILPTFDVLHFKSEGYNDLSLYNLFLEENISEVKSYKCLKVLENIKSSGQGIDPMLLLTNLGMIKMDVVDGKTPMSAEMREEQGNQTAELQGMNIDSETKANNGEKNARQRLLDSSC
# UniProt Q7Z3B4: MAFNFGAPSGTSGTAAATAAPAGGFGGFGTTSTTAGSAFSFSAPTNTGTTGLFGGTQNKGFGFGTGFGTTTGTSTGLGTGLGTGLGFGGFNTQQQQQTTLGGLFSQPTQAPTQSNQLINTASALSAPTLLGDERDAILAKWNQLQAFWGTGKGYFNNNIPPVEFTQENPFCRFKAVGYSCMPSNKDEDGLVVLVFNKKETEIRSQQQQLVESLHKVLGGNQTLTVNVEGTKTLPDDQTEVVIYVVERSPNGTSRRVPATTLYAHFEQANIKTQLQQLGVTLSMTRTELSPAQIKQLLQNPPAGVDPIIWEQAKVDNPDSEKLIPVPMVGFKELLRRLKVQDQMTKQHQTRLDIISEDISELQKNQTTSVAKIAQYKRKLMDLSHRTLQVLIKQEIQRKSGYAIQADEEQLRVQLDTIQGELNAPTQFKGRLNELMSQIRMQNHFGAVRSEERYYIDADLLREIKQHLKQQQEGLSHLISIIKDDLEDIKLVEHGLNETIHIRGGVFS
# Key:
# Experiment in all cases: log2 fold change, soluble protein after heating vs DMSO (PISA); higher = thermal stabilisation; K562 lysate, 10 uM; active = over 0.2 and 3.5 SD of the protein, either way, in both replicates (recomputed)
# [1] = compound: NCC(=O)Nc1ccc(-n2nc(C(F)(F)F)cc2-c2ccc3c(ccc4ccccc43)c2)cc1
# Outline: (§1)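 Dounce homogenisation of K562 pellets in PBS pH 7.4 with 1 mM MgCl2 produced a crude extract, used at 1 mg/mL protein. Exposure to 10 μM compound lasted 30 min, and aliquots were then heated for 3 min across 48°C-58°C, pooled and brought to 0.5% NP-40 at 4°C. The supernatant after 21,000xg for 90 min was quantified by TMTpro 16plex LC-MS/MS with channel sums equalised. Duplicate values are given as log-two fold change in thermal stability relative to solvent controls.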
# [2] = compound: O=C(CCCCCCC(=O)Nc1ccccc1)NO [vorinostat]
# Outline: as §1
# [3] = compound: O=C(O)c1ccc2c(c1)nc(Nc1cccc(Cl)c1)c1ccncc12 [silmitasertib]
# Outline: as §1
# [4] = compound: O=C1NC(=O)C(c2cnc3ccccn23)=C1c1cn2c3c(cc(F)cc13)CN(C(=O)N1CCCCC1)CC2
# Outline: as §1
# [5] = compound: c1cn2cc(-c3ccc4cn[nH]c4c3)nc(Nc3ccc(N4CCOCC4)cc3)c2n1 [entospletinib]
# Outline: as §1
Target,log2 fold change [1],log2 fold change [2],log2 fold change [3],log2 fold change [4],log2 fold change [5]
OVCA2 (UniProt Q8WZ82),inactive: 0.129,inactive: -0.035,inactive: 0.021,inactive: -0.003,inactive: 0.048
OPTN (UniProt Q96CV9),inactive: -0.027,inactive: 0.069,inactive: 0.003,inactive: -0.017,inactive: 0
PAFAH1B3 (UniProt Q15102),inactive: -0.013,inactive: -0.179,inactive: 0.041,inactive: 0.003,inactive: -0.052
PACC1 (UniProt Q9H813),inactive: 0.034,inactive: 0.157,inactive: -0.08,inactive: 0.023,inactive: -0.093
PALM3 (UniProt A6NDB9),inactive: 0.02,inactive: 0.153,inactive: 0.05,inactive: 0.021,inactive: -0.009
OSBPL9 isoform 2 (UniProt Q96SU4),inactive: 0.012,inactive: -0.078,inactive: 0.042,inactive: 0.023,inactive: -0.048
ODR4 (UniProt Q5SWX8),inactive: -0.035,inactive: 0.196,inactive: 0.017,inactive: -0.031,inactive: -0.031
P3H3 (UniProt Q8IVL6),inactive: 0.018,inactive: 0.066,inactive: -0.073,–,–
PACSIN3 (UniProt Q9UKS6),inactive: -0.019,inactive: -0.134,inactive: 0.04,inactive: -0.019,inactive: -0.036
OXCT1 (UniProt P55809),inactive: 0.001,inactive: 0.103,inactive: -0.035,inactive: 0.022,inactive: -0.009
OIP5 (UniProt O43482),inactive: -0.003,inactive: 0.038,inactive: -0.055,inactive: 0.016,inactive: -0.032
OSTM1 (UniProt Q86WC4),inactive: -0.09,inactive: 0.175,inactive: -0.015,inactive: -0.032,inactive: -0.016
NVL (UniProt O15381),inactive: 0.119,inactive: -0.122,inactive: 0.091,inactive: 0.001,–
OSGEP (UniProt Q9NPF4),inactive: -0.001,inactive: -0.038,inactive: -0.109,inactive: 0.016,inactive: 0.002
OSBPL2 (UniProt Q9H1P3),inactive: -0.009,inactive: -0.189,inactive: 0.032,inactive: -0.025,inactive: -0.015
PAGE2B (UniProt Q5JRK9),inactive: 0.057,active: 0.474,inactive: -0.001,inactive: 0.02,inactive: 0.017
PAFAH2 (UniProt Q99487),inactive: 0.066,inactive: 0.023,inactive: 0.005,inactive: -0.037,inactive: -0.006
OSBPL6 isoform 5 (UniProt Q9BZF3),inactive: -0.082,inactive: -0.195,inactive: 0.25,inactive: -0.026,inactive: 0.113
OPA1 isoform 2 (UniProt O60313),inactive: 0.002,inactive: 0.014,inactive: 0.027,inactive: 0.009,inactive: -0.004
ORMDL1 (UniProt Q9P0S3),inactive: 0.162,inactive: 0.058,inactive: -0.003,inactive: -0.034,–
OS9 (UniProt Q13438),inactive: 0.03,inactive: 0.092,inactive: -0.001,inactive: 0.013,inactive: -0.037
PALM (UniProt O75781),inactive: 0.023,inactive: 0.153,inactive: -0.032,inactive: -0.022,inactive: -0.043
OTC (UniProt P00480),inactive: 0.097,inactive: 0.087,inactive: -0.029,inactive: -0.157,inactive: -0.028
OCRL (UniProt Q01968),inactive: 0.134,active: -0.43,inactive: 0.032,inactive: 0.019,inactive: -0.032
OSBP (UniProt P22059),inactive: 0.041,inactive: 0.108,inactive: -0.121,inactive: -0.015,inactive: -0.1
NUP50 (UniProt Q9UKX7),inactive: 0.006,inactive: 0.006,inactive: 0.003,inactive: -0.001,inactive: 0.006
NUP214 (UniProt P35658),inactive: 0.029,inactive: -0.139,inactive: -0.006,inactive: -0.007,inactive: -0.018

Target,log2 fold change [1],log2 fold change [2],log2 fold change [3],log2 fold change [4],log2 fold change [5]
PAGR1 (UniProt Q9BTK6),inactive: 0.016,inactive: 0.139,inactive: 0.106,inactive: 0,inactive: 0.024
OXSM (UniProt Q9NWU1),inactive: -0.019,inactive: 0.113,inactive: -0.04,inactive: 0.038,inactive: -0.028
PARG (UniProt Q86W56),inactive: 0.006,active: -0.363,inactive: -0.035,inactive: 0.018,inactive: 0.006
PA2G4 (UniProt Q9UQ80),inactive: 0.004,inactive: 0.002,inactive: -0.004,inactive: -0.006,inactive: 0.006
OXR1 (UniProt Q8N573),inactive: -0.041,inactive: 0.024,inactive: -0.034,inactive: -0.02,inactive: -0.029
OSTC (UniProt Q9NRP0),inactive: -0.315,inactive: 0.121,inactive: -0.013,inactive: 0.061,inactive: -0.083
OAT (UniProt P04181),inactive: 0.053,inactive: 0.168,inactive: -0.006,inactive: 0.042,inactive: 0.029
NUP43 (UniProt Q8NFH3),inactive: 0.06,inactive: 0.093,inactive: -0.073,inactive: -0.008,inactive: -0.003
OGFOD1 (UniProt Q8N543),inactive: -0.015,inactive: -0.02,inactive: 0.039,inactive: -0.004,inactive: 0.002
OSBP2 (UniProt Q969R2),inactive: 0.025,inactive: 0.055,inactive: -0.147,inactive: 0.023,inactive: -0.102
NUTF2 (UniProt P61970),inactive: -0.133,inactive: 0.118,inactive: 0.002,inactive: 0.03,inactive: -0.003
OTUD6B (UniProt Q8N6M0),inactive: 0.02,inactive: -0.037,inactive: -0.022,inactive: -0.023,inactive: 0.03
NUP37 (UniProt Q8NFH4),inactive: 0.015,inactive: 0.004,inactive: 0.011,inactive: -0.064,inactive: -0.027
OTUD4 (UniProt Q01804),inactive: 0.073,inactive: 0.098,inactive: -0.026,inactive: 0.008,inactive: -0.083
OGT (UniProt O15294),inactive: 0.002,active: -0.42,inactive: 0.035,inactive: 0.045,inactive: 0.021
PANK4 (UniProt Q9NVE7),inactive: 0.012,active: -0.423,inactive: -0.03,inactive: 0.055,inactive: 0.035
NUP188 (UniProt Q5SRE5),inactive: -0.002,active: -0.36,inactive: 0.073,inactive: -0.009,inactive: -0.003
OARD1 (UniProt Q9Y530),inactive: -0.021,active: -0.456,inactive: 0.051,inactive: 0.02,inactive: 0.024
NUP62 (UniProt P37198),inactive: -0.024,inactive: 0.031,inactive: -0.004,inactive: 0.014,inactive: 0.021
ORC6 (UniProt Q9Y5N6),inactive: -0.01,inactive: -0.241,inactive: -0.036,inactive: -0.011,inactive: 0.044
ODF2 (UniProt Q5BJF6),inactive: 0.002,inactive: -0.199,inactive: -0.117,inactive: 0.011,inactive: -0.052
PAFAH1B1 (UniProt P43034),inactive: 0,inactive: 0.074,inactive: -0.006,inactive: -0.025,inactive: 0.019
NUP98 (UniProt P52948),inactive: 0.021,active: -0.231,inactive: 0.001,inactive: 0.001,inactive: -0.012
PANX1 (UniProt Q96RD7),inactive: -0.027,inactive: 0.068,inactive: -0.025,inactive: -0.075,inactive: 0.017
NUP54 (UniProt Q7Z3B4),inactive: 0.023,inactive: 0.016,inactive: -0.009,inactive: -0.002,inactive: 0.007
PAFAH1B2 (UniProt P68402),inactive: -0.002,inactive: 0.026,inactive: -0.031,inactive: -0.005,inactive: -0.074
NUSAP1 (UniProt Q9BXS6),inactive: 0.01,inactive: 0.101,inactive: -0.036,inactive: -0.003,inactive: -0.001

# Single entries from the list.
# log2 fold change [2], OSBP (UniProt P22059) is entered as inactive: 0.108
# log2 fold change [5], PALM (UniProt O75781) is entered as inactive: -0.043

# Quoted at random: 3 records from the list
Target,log2 fold change [1],log2 fold change [2],log2 fold change [3],log2 fold change [4],log2 fold change [5]
NUP62 (UniProt P37198),inactive: -0.024,inactive: 0.031,inactive: -0.004,inactive: 0.014,inactive: 0.021
PARG (UniProt Q86W56),inactive: 0.006,active: -0.363,inactive: -0.035,inactive: 0.018,inactive: 0.006
PAFAH1B2 (UniProt P68402),inactive: -0.002,inactive: 0.026,inactive: -0.031,inactive: -0.005,inactive: -0.074
